# PubChem BioAssay AID1259282 | Sanger Institute | 2017
# Assay: 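siRNA screen across the kinome seeking drug combinations lethal to colorectal cancer cells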 (primary screen)
# Cells: DIFI human colorectal cancer cell line
# Reagents: siRNA pool against human genes
# Challenge: anchor drug at a mild dose (BYL719 1 µM, cetuximab 5 µg/ml, trametinib 10 nM) or DMSO vehicle; exposure time not given
# Detection: 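Viability relative to non-targeting pool wells, replicate mean, in DMSO or low-dose BYL719, cetuximab or trametinib; robust z-score without drug; synergy score per drug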
# Scale: robust z-score, knock-down alone: higher = more viable cells than typical knock-down; viability, knock-down alone: higher = more viable cells
# Hit rule: 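a knock-down is called essential if its DMSO robust z-score is under -3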
# Calls: active = essential (knock-down alone, z below -3); inactive = not essential
# The whole screen tested 794 reagents; below is a random part of them. 11 of all reagents (1.4%) were called active. 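Calls flag knock-downs that lower viability without drug; drug synergy appears only in the synergy scores; exposure time not stated.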 Reagents against one gene are numbered here. No viability above 1 is reported: the scale is capped. Further read-outs or replicates are left out here. Not stated in the record: the amount of reagent, the time to read-out.
The first 4 records, to show the layout:
gene knocked down,pool no.,"robust z-score, knock-down alone","viability, knock-down alone (fraction of control)",Call
AKT2,1,-1.22,0.719,inactive
CDK18,1,-1.92,0.618,inactive
ITPKA,1,-1.19,0.723,inactive
STK40,1,-0.39,0.84,inactive

Results, from the start:
gene knocked down,pool no.,"robust z-score, knock-down alone","viability, knock-down alone (fraction of control)",Call
AKT2,1,-1.22,0.719,inactive
CDK18,1,-1.92,0.618,inactive
ITPKA,1,-1.19,0.723,inactive
STK40,1,-0.39,0.84,inactive
PDIK1L,1,-0.249,0.86,inactive
NAGK,1,0.715,1,inactive
UHMK1,1,-1.04,0.745,inactive
EPHB3,1,-2.45,0.54,inactive
IKBKB,1,0.333,0.945,inactive
KALRN,1,0.715,1,inactive
MAPK4,1,-0.981,0.754,inactive
ALPK2,1,0.715,1,inactive
SPEG,1,0.715,1,inactive
PRKAR2B,1,-1.05,0.744,inactive
DDR1,1,0.443,0.96,inactive
NEK7,1,0.715,1,inactive
LTK,1,0.715,1,inactive
BTK,1,-0.508,0.822,inactive
SYK,1,-0.25,0.86,inactive
CDC7,1,-0.0176,0.894,inactive
MARK1,1,-1.28,0.71,inactive
CAMK2A,1,0.715,1,inactive
ATR,1,0.715,1,inactive
CDK9,1,0.715,1,inactive
PIK3R3,1,0.715,1,inactive
RIOK1,1,-0.851,0.773,inactive
MAPK1,1,-0.154,0.874,inactive
ARID1A,1,0.715,1,inactive
GALK2,1,-2.85,0.482,inactive
WHR1,1,0.715,1,inactive
MSR1,1,-0.602,0.809,inactive
EPHA2,1,0.715,1,inactive
MAP3K21,1,0.171,0.921,inactive
ILK,1,0.715,1,inactive
ILK,2,-1.16,0.727,inactive
CSNK1G1,1,0.715,1,inactive
ASPM,1,0.422,0.958,inactive
ULK3,1,0.715,1,inactive
CAMK1D,1,0.277,0.936,inactive
PKM,1,0.456,0.962,inactive
PIP5K1B,1,0.715,1,inactive
RIOK2,1,0.0552,0.904,inactive
CDK16,1,-2.28,0.565,inactive
MKNK1,1,0.715,1,inactive
TCF7L2,1,0.715,1,inactive
LRRK1,1,0.715,1,inactive
PRKAA1,1,0.715,1,inactive
FLT3,1,0.715,1,inactive
PAPSS1,1,0.173,0.921,inactive
MYH10,1,-0.399,0.838,inactive
